# Primary screen of a compound library

Data taken from ChEMBL document CHEMBL3988442, “University of Dundee, Small-Polar-MMV Screening Library” (2021).

Mtb glucose medium: 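Whole-cell growth test on Mycobacterium tuberculosis, read after 3 days in glucose-containing 7H9 medium; the read-out is not stated. Compounds at 50 µM. The record gives no direction; compounds that gave an IC50 in retests scored well above the rest, so higher reads as more growth inhibition. Of about 69,000 compounds tested this way, about 760 (1.1%) reached 50% or more in at least one test.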
Mtb cholesterol medium: 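Whole-cell growth test on Mycobacterium tuberculosis, read after 4 days in a medium based on cholesterol and the lipid DPPC; the read-out is not stated. Compounds at 50 µM. The record gives no direction; compounds that gave an IC50 in retests scored well above the rest, so higher reads as more growth inhibition. Of about 69,000 compounds tested this way, about 370 (0.54%) reached 50% or more in at least one test.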

Results are given as percent effect. The record does not define 0% and 100%; most values in the screen are far below 50% and negative numbers occur (in some assays of this library far below -100). The compounds are a random part of those screened. Two or more numbers in one place are separate tests of the same structure; such repeats can differ widely. A dash means the value is not listed here; it may have been measured.

Compound | Mtb glucose medium | Mtb cholesterol medium
CC(C)N1CCC(CC(=O)N(C)C(C)c2cncs2)CC1 (configuration not stated) | 27.73 | 24.47
COC(=O)c1cccc(CNC(=O)NCCC(F)(F)F)c1 | -1.163 & -7.409 | -0.7745
CCc1cnc(CN2CCCC(c3cc(C)[nH]n3)C2)o1 (configuration not stated) | -16.22 | -4.607 & 4.39
Cn1ccnc1CN(CCO)C(=O)c1nc2ccccc2s1 | -10.01 | -2.187
COc1cc2c(cc1OC)S(=O)(=O)N(Cc1ccc(C)cc1)C2=O | 26.86 | 9.441
Cc1cc(C)n(CC2CCCN2C(=O)c2ccc3[nH]c(=O)[nH]c3c2)n1 (configuration not stated) | -9.304 | 18.79
Cc1ccc(C(=O)N2CC3(CCCCC3)c3cc(C(=O)O)ccc32)cn1.O=C(O)C(F)(F)F | 0.3915 & 21.77 | 1.378
COc1ccccc1NC(=O)c1cnc(C2CCN(C(C)=O)C2)nc1C (configuration not stated) | -1.475 | -17.73 & -13.12
CCN1CCC2(CC1)CC(NC(=O)c1ccnnc1)c1ccccc12.O=C(O)C(F)(F)F (configuration not stated) | -4.639 & -21.19 | 8.635
Clc1ccccc1CN1CCCC(c2nnc(-c3cnccn3)o2)C1 (configuration not stated) | 37.71 | 14.31
COCC(=O)N1CCCC1c1ccnc(Nc2cnccn2)n1 (configuration not stated) | 8.284 | 16.07
O=C(NCCCc1nnc2ccccn12)c1ccccc1C1CCNC1 (configuration not stated) | -9.225 & -4.731 | -8.821
CN1CCN([C@@H]2CCN(CC3CCOC3)[C@H]2Cc2cnn(C)c2)CC1.O=C(O)C(F)(F)F.O=C(O)C(F)(F)F.O=C(O)C(F)(F)F (some centres not stated) | 20.92 | -8.765
CCC1CN(C(=O)Nc2cnc3c(cnn3C(C)C)c2)CCO1 (configuration not stated) | -3.668 | -18.92
COC(=O)CC(NC(=O)CCCn1cccn1)c1ccc(Cl)cc1 (configuration not stated) | 1.928 & -4.157 | 9.684
Cc1cccc(C(C(=O)NCCc2nc(C)cc(=O)[nH]2)N(C)C)c1 (configuration not stated) | -2.757 | -9.003 & -3.573
O=S(=O)(CCSc1nccn1C1CC1)c1ccccc1 | -14.93 | 7.921
O=C(O)C(F)(F)F.[H][C@@]12CCN(CC(=O)NC)C[C@]1([H])CN(C(=O)c1ccccc1F)C2 | -3.986 | 19.22
NC(=O)NC1CCN(Cc2ccc3c(c2)CCC3)CC1 | -23.61 & 3.196 | 6.862
CN1CC(C(=O)N2CCC(Oc3ccccc3Cl)CC2)CC1=O (configuration not stated) | 9.896 & 6.963 | -0.9322
COc1ccc(CNCc2c(C(C)C)nn(C)c2OC)cn1 | 20.89 | -12.17
Cc1cc(CN2CCC(CNS(=O)(=O)c3ccc(Br)s3)CC2)c(C)o1 | 11.92 & -8.606 | 6.235
O=C(NCc1cn2c(n1)SCC2)c1cn(CCN2CCCCC2)nn1 | 19.53 | 31.56
CN(C)C(=O)c1cccc(NC(=O)N(CCO)Cc2ccsc2)c1 | 15.83 & 24.8 | 0.8716
COCCOc1ccc(NCc2cccc3cn[nH]c23)cn1 | - | -1.012 & -41.11
O=C(Cc1noc(C(=O)NCC2CC2)n1)Nc1cccc(C(F)(F)F)c1 | -3.529 & -17.51 | 3.257
O=S1(=O)N=C(CSCc2ccccc2)Nc2ccccc21 | 23.45 | 22.34
Cc1nc(C)n(CC2CCCN(Cc3noc(C)n3)C2)n1 (configuration not stated) | -0.7155 | -2.102
c1cc(CCNc2ncc(-c3cnccn3)c(C3CC3)n2)ccn1 | 27.73 | 3.844
Cc1cccc(CS(=O)(=O)CC(=O)N(C)Cc2ccccc2F)c1 | 27.41 | 17.25
COc1c(CNCc2nnc3n2CCCCC3)c(C)nn1C.Cl | -0.9499 | -27.08
Cc1ccc(-n2cc(C(=O)NCC(C)Cn3cccn3)nn2)cc1 (configuration not stated) | 2.376 | -16.18
O=C(O)C(F)(F)F.O=C1CC(c2ccccc2)C2(CCN(CC3CC3)CC2)N1 (configuration not stated) | 26.13 | -10.09
CN(C)CC1CN(C(=O)NCc2ccccc2)Cc2nccn2C1.O=C(O)C(F)(F)F (configuration not stated) | -29.21 | -14.36
Cc1ncsc1C(=O)N1CCN(Cc2cscn2)CC1 | 23.4 | 19.82
O=C(CCn1ncc2c(Cl)cccc21)NCCCn1cccn1 | 20.19 | -0.7123
CC(C)NC(=O)NCc1cc(-c2cccc(Cl)c2)nn1C | -6.755 | -14.51
O=C1NCCCCC1Sc1ccc(F)c(F)c1 (configuration not stated) | -23.76 | -14.85
CC(NC(=O)CNC(=O)OC(C)(C)C)c1ccc(Cl)s1 (configuration not stated) | 11.28 | 5.444
CS(=O)(=O)c1ccc(CNC(=O)N2CCC(C(N)=O)CC2)cc1 | -23.8 | -10.15
CC(O)CN1CCC(CN(C)CC(=O)NC(C)C)CC1 (configuration not stated) | -1.229 | -14.18
Cn1cc(-c2nc(CN3CCN(CCO)CC3)cs2)cn1 | -6.764 | -19.33
N#CCSCCCN1CCC(C(=O)N2CCCCCC2)CC1 | -30.54 | -38.94 & -3.181
Cc1ccc(NC(=O)NC(C)c2nc[nH]n2)cc1Cl (configuration not stated) | -9.991 & 4.375 | -2.807
CCCOc1ccccc1CN[C@@H]1CCC[C@H]1Cc1cc(C)no1.O=C(O)CC(O)(CC(=O)O)C(=O)O | 43.52 | -1.952
CN(Cc1ccc(Cl)s1)C(=O)c1ccccc1OCC(N)=O | 4.694 & 39.15 | 5.127
O=C(NCc1cc[nH]n1)N1CCN(c2ncccn2)CC1 | -15.28 | -10.1
COC(=O)Cc1cccc(NC(=O)Cc2cc(C)[nH]n2)c1 | 1.353 | -4.915
CC(=O)c1cccc(NC(=O)N(CCO)C2CCc3ccccc32)c1 (configuration not stated) | 13.49 | 18.59
CC(NC(=O)N(C)Cc1ccsc1)c1ccc2c(c1)CCC(=O)N2 (configuration not stated) | -7.116 | -11.63
O=C1CC2(CCN(Cc3ncc[nH]3)CC2)CN1Cc1cc(F)cc(F)c1 | -9.23 | -2.264
CC1CCN(C(=O)CN2CC(c3nc(C4CC4)no3)C2)CC1.O=C(O)C(=O)O | 8.572 | -20.62
Cc1csc(N2CCN(C3CCc4ccccc4C3)CC2)n1 (configuration not stated) | 9.877 & -30.46 | -12.14
[H][C@@]12CCN(C(=O)c3sccc3NC(C)=O)C[C@@]([H])(CC1)N2C | 9.407 | 9.391
O=C1NCCCc2[nH]c(Cc3ccc(F)cc3)nc21 | 1.362 | 1.209
COc1ccc(-n2cc(CNC(=O)c3cc[nH]n3)nn2)cc1 | 3.652 & 6.811 | -11.27
CC(C)(C)NC(=O)c1cnc(C(C)(C)C)s1 | 0.2521 | -8.365 & -5.686
O=C(O)C(F)(F)F.c1ccc(CN2CCC3(CC2)CC(Nc2nccs2)CO3)nc1 (configuration not stated) | 4.316 | -0.9082 & 26.98
CN1CCCN(c2nccc(-c3cncnc3C3CCCCC3)n2)CC1 | 1.302 | -7.789
Cc1nc2cc(C(=O)N3CCCC(n4cncn4)C3)ccc2n1C (configuration not stated) | 21.75 | -6.819
CC(=O)NC1CCCN(C(=O)NCc2cc[nH]n2)C1 (configuration not stated) | -7.552 | -5.698
COCCNC(=O)CN1CCC(N2CCN(C)C2=O)CC1 | -18.46 | -6.902
Cc1c(C(=O)NCC(C)C)nnn1-c1cccc2c1CCN(CCO)C2 | 12.7 | 3.394 & 0.434
O=C(CCN1CCc2ccccc21)N1CC(C(=O)N2CCOCC2)C1 | -22.24 | -19.85
COc1ccc(CCC(=O)NCCC2CCCO2)cc1Br (configuration not stated) | -6.45 | 8.374 & -3.346

For reference, 4 entries once more:

| Compound | Mtb glucose medium | Mtb cholesterol medium |
|---|---|---|
| `O=C(Cc1noc(C(=O)NCC2CC2)n1)Nc1cccc(C(F)(F)F)c1` | -3.529 & -17.51 | 3.257 |
| `CC(C)(C)NC(=O)c1cnc(C(C)(C)C)s1` | 0.2521 | -8.365 & -5.686 |
| `CCN1CCC2(CC1)CC(NC(=O)c1ccnnc1)c1ccccc12.O=C(O)C(F)(F)F` (configuration not stated) | -4.639 & -21.19 | 8.635 |
| `Cc1c(C(=O)NCC(C)C)nnn1-c1cccc2c1CCN(CCO)C2` | 12.7 | 3.394 & 0.434 |